# Assay results: US6750202B1 (priority 1998, dated 2004)
# Test: general procedure: solution-phase peptide synthesis; PyBop, ethyldiisopropylamine
# Settings: coupling step
substance,measurement,value
(1R)-1-({(2S)-2-{[(Benzyloxy)carbonyl]amino}-6-[(tert-butoxy-carbonyl)amino]hexanoyl}amino)-2-phenylethyl{3-[(2S)-2-({[(1S)-1-(methoxycarbonyl)-3-methylbutyl]amino}carbonyl)tetrahydro-1H-pyrrol-1-yl]-2-methyl-3-oxopropyl}phosphinic acid,step yield,32.8% of theory
